These results are taken from US7834013B2, “Aminophenylcyclopropyl carboxylic acids and derivatives as agonists to GPR40” (GlaxoSmithKline LLC, priority 2003, dated 2010).

Chains of the proteins cited; added tags and fusions are not shown.
UniProt O14842, whole entry: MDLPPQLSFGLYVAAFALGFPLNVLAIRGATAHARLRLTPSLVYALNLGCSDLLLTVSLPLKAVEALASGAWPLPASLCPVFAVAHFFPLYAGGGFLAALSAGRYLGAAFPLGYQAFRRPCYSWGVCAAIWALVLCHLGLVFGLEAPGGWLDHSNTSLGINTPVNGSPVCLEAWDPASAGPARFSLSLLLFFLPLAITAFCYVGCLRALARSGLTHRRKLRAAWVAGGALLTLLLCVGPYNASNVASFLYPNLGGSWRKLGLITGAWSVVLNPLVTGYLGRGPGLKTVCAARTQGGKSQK

In general, pEC50 refers to the EC50 on a negative log10 scale, so that one unit is a factor of ten. A higher pEC50 goes with a low EC50.

The test addresses GPR40 (Homo sapiens, UniProt O14842). Kind of test: GPR40 SAR Primary Assay (Elk-1/Gal4-luc+ reporter, luciferase activity). The following applies: Table 1, compounds made on Wang resin; assay not given, taken as GPR40 primary assay. As for the experimental part: An existing stable GPR40 Elk-1/Gal4-luc^+ CHO cell line generated by electroporation and functional cloning was used. Cells were maintained in a humidified incubator at 37° C./5% CO2 in complete media containing DMEM/F12 (Gibco, #11039-021), 5% FBS (Gibco, #16140-071) and 1% Glutamine (Gibco, #25030-081). Cell maintenance passages were made at 1:40 dilution every 3-4 days. Forty eight hours prior to assay, 15e6 cells were added to 200 ml of complete media then seeded into a 1200 cm^2-cell factory and returned to a humidified incubator at 37° C./5% CO2. 20 hours prior to assay, the growth media was removed and replaced with 200 ml of serum-free DMEM/F12 to quiesce background activity. At the time of assay, cells were harvested using non-enzymatic cell dissociation solution (Sigma, #C-5914), washed and counted. The 20 hour starve media was collected and used as condition media for cell assay plating. Cells were plated at a concentration of 10,000 cells/well in a total well volume of […] in black 96-well clear bottom polystyrene plates (CoStar, #3904). Test compounds were prepared as serial dilutions in 100% DMSO, then 1 ul was delivered to each well resulting in a final concentration of 1% DMSO. […] Luciferase activity was measured on a Packard TopCount™ microplate scintillation counter using 2 seconds per well count time. […]
A percent max response and pEC50 were recorded for each compound. […]

The structures given here were assigned with low confidence; some may be wrong.

As for `O=C(O)C1CC1c1ccc(NCc2cccc(Oc3ccccc3)c2)cc1` (centres unmarked), the pEC50 is 7.4. Next, `O=C(O)C1CC1c1ccc(NCc2ccc(-c3ccccc3)cc2)cc1` (centres unmarked): 7.5.
